Measurements from article PMC3871816, “The Arabidopsis adaptor protein AP-3µ interacts with the G-protein β subunit AGB1 and is involved in abscisic acid regulation of germination and post-germination development” (Journal of Experimental Botany, 2013).
Results are given in words; binding and its absence hold for the method and conditions named. For some assays here: Binding seen in cells or lysates may run through a third protein. Some entries that bind do so weakly or less than the wild type. Sequences can lack the tags named with a protein.

T1: Arabidopsis G-protein β subunit AGB1, Gal4 DNA-binding domain fusion (pGBKT7-AGB1) (Arabidopsis thaliana) (UniProt P49177)
T1 sequence: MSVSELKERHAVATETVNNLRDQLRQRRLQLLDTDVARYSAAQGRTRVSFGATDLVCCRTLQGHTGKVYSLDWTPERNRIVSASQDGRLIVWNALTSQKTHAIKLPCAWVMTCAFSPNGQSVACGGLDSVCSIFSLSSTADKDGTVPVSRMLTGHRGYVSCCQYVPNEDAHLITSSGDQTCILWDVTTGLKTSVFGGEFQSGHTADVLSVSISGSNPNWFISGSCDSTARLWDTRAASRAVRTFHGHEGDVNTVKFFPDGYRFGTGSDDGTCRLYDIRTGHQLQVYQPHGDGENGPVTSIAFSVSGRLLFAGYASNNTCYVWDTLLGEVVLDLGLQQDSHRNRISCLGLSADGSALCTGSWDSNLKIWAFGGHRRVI

T2: nYFP-fused AGB1 (Arabidopsis thaliana) (UniProt P49177)
T2 sequence: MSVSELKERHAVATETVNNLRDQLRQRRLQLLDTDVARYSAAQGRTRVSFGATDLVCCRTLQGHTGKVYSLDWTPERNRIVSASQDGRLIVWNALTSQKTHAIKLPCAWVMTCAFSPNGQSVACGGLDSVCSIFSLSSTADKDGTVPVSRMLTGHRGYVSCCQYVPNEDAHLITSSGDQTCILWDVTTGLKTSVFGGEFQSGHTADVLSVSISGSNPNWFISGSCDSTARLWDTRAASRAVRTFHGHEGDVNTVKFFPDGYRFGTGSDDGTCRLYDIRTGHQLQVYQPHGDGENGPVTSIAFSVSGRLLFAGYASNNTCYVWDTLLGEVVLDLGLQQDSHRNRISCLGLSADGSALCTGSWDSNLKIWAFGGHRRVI


Assays:
[1] = target: T1, Arabidopsis G-protein β subunit AGB1, Gal4 DNA-binding domain fusion (pGBKT7-AGB1) (Arabidopsis thaliana); test: two-hybrid; pGBK-AGB1 and pGAD-AP-3µ co-introduced into S. cerevisiae AH109; growth on SD/–Leu/–Trp/–His (TDO), reporter HIS3; at least four colonies
[2] = target: T2, nYFP-fused AGB1 (Arabidopsis thaliana); test: split reporter; bimolecular fluorescence complementation of nYFP and cYFP fusions co-expressed in onion epidermal cells by particle bombardment

Binder | binding [1] | binding [2]
AP-3µ, Gal4 activation domain fusion (pGADT7-Rec-AP-3µ, full-length ORF) (protein, UniProt F4I562 1-415) MLQCIFLISDSGEVMLEKQLTGHRVDRSICAWFWDQYISQGDSFKALPVIASPTHYLFQIVRDGITFLACSQVEMPPLMAIEFLCRVADVLSEYLGGLNEDLIKDNFIIVYELLDEMIDNGFPLTTEPSILKEMIAPPNLVSKMLSVVTGNASNVSDTLPSGAGSCVPWRPTDPKYSSNEVYVDLVEEMDAIVNRDGELVKCEIYGEVQMNSQLTGFPDLTLSFANPSILEDMRFHPCVRYRPWESHQVLSFVPPDGEFKLMSYRVKKLKNTPVYVKPQITSDSGTCRISVLVGIRSDPGKTIESITLSFQLPHCVSSADLSSNHGTVTILSNKTCTWTIGRIPKDKTPCLSGTLALEPGLERLHVFPTFKLGFKIMGIALSGLRIEKLDLQTIPPRLYKGFRAQTRAGEFDVRL | binds | 
cYFP-fused AP-3µ (protein, UniProt F4I562 1-415) MLQCIFLISDSGEVMLEKQLTGHRVDRSICAWFWDQYISQGDSFKALPVIASPTHYLFQIVRDGITFLACSQVEMPPLMAIEFLCRVADVLSEYLGGLNEDLIKDNFIIVYELLDEMIDNGFPLTTEPSILKEMIAPPNLVSKMLSVVTGNASNVSDTLPSGAGSCVPWRPTDPKYSSNEVYVDLVEEMDAIVNRDGELVKCEIYGEVQMNSQLTGFPDLTLSFANPSILEDMRFHPCVRYRPWESHQVLSFVPPDGEFKLMSYRVKKLKNTPVYVKPQITSDSGTCRISVLVGIRSDPGKTIESITLSFQLPHCVSSADLSSNHGTVTILSNKTCTWTIGRIPKDKTPCLSGTLALEPGLERLHVFPTFKLGFKIMGIALSGLRIEKLDLQTIPPRLYKGFRAQTRAGEFDVRL |  | binds
